# Results are given in words; binding and its absence hold for the method and conditions named. In cells and extracts the contact can be indirect. A yes stands for co-enrichment or nearness to the bait. Other partners may have been found.
# Amino acid sequences for entries named in this document (tags omitted). Residues count along the entry.
# UniProt Q8AYS8: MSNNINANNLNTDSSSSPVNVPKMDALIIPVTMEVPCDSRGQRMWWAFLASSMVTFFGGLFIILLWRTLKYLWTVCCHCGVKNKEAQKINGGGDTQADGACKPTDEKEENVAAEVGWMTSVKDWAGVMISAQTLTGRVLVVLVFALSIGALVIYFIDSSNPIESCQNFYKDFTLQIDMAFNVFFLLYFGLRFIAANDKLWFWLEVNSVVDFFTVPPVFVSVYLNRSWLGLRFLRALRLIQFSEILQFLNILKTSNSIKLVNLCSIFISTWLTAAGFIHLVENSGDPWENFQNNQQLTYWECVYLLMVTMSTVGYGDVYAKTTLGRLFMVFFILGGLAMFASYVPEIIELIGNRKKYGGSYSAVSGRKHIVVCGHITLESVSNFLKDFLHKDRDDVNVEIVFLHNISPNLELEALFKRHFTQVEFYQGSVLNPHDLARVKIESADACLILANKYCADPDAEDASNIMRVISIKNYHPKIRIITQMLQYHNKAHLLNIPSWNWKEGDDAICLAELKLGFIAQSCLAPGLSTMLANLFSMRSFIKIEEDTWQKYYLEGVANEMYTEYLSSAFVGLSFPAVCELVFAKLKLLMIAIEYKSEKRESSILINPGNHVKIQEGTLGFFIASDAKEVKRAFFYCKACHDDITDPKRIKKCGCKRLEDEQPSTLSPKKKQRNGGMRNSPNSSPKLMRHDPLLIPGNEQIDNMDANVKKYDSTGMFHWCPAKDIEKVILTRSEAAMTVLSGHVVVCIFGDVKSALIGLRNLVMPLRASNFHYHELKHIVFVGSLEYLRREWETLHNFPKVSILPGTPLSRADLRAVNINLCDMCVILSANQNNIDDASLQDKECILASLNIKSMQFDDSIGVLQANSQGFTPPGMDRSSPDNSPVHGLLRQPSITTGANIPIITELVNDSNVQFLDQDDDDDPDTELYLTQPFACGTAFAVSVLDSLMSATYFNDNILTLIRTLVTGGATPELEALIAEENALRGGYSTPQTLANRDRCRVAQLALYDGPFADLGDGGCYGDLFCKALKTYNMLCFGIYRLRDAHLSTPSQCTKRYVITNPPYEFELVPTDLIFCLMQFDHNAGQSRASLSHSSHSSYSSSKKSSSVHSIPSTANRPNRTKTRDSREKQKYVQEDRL
# UniProt Q01406: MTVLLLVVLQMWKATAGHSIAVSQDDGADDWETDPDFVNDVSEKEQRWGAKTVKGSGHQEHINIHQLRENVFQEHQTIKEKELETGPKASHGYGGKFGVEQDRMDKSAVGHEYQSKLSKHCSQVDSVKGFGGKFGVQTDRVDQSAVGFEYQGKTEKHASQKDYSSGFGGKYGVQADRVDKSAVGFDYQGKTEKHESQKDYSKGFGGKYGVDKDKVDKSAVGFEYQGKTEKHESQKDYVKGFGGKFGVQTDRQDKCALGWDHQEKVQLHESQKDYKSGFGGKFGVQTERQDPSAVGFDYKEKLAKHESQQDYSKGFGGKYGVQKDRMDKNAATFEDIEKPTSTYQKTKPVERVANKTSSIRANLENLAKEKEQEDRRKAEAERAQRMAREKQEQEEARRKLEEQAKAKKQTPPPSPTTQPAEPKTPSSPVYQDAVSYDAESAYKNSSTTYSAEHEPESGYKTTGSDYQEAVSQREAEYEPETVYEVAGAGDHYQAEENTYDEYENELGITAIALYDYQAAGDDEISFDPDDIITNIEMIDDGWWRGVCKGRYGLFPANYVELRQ
# UniProt Q90593, residues 17-652: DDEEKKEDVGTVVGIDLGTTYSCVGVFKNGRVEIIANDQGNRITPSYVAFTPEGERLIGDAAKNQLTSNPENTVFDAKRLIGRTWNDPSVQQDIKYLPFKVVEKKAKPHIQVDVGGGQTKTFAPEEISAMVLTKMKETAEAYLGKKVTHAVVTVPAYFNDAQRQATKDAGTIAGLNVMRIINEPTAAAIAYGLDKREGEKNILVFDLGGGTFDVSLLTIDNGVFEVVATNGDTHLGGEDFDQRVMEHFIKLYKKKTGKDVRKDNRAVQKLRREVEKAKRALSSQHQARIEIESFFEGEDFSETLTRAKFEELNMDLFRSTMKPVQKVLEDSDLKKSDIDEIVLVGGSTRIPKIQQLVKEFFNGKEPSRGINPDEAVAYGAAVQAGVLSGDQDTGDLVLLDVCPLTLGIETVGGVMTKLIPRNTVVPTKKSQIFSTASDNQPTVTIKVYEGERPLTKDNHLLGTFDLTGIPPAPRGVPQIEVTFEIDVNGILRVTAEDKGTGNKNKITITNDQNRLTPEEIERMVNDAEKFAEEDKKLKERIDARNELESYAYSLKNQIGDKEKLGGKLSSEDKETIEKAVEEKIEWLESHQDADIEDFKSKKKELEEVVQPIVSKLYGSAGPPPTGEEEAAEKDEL
# UniProt P13648: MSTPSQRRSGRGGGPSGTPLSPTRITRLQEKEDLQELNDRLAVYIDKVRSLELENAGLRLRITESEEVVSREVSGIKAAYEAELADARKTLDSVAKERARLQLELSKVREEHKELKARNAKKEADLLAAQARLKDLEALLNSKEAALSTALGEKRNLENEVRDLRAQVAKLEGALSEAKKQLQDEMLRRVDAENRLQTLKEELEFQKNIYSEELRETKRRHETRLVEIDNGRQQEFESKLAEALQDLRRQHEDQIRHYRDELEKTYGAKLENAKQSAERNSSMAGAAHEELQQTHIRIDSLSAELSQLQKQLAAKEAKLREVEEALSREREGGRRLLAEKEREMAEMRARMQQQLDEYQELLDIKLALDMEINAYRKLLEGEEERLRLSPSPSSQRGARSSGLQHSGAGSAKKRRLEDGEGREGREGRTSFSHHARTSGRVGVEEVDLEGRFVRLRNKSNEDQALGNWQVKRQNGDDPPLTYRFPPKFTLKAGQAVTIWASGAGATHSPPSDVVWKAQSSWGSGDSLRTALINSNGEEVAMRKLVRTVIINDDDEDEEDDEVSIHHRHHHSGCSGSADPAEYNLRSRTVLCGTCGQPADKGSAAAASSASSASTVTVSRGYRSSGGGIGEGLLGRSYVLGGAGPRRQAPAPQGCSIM
# UniProt P80566: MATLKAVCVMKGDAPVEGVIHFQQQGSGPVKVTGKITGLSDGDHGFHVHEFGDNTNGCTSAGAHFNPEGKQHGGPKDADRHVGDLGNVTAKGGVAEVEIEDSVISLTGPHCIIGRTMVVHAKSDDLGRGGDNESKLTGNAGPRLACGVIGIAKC
# UniProt P60878: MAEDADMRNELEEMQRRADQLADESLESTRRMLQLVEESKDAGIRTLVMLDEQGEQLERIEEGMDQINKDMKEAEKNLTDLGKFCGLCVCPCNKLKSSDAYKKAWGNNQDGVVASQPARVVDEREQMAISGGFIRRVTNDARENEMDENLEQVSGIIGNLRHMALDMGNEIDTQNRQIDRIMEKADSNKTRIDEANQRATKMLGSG
# UniProt O57391: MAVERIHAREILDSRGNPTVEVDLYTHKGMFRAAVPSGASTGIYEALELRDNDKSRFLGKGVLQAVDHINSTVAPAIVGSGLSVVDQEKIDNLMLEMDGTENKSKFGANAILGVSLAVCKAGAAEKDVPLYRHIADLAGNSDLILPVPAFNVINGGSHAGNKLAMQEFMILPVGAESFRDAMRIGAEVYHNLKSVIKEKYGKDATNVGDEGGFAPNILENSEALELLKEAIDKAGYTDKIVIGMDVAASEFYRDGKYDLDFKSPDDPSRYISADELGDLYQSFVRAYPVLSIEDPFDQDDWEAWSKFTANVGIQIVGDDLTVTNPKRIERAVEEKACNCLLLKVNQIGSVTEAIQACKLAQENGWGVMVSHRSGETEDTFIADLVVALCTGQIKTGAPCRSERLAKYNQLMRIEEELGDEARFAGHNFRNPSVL
# Biological target: large-conductance Ca2+-activated K+ (BK) channel α-subunit (chicken (endogenous in chick cochlea)) (UniProt Q8AYS8)
# Assay: affinity purification with mass spectrometry; polyclonal anti-BKα (Chemicon) immunocomplex capture on protein G beads from membrane/cytoskeletal (1% ASB-14) and cytoplasmic fractions of chick cochlea; 2-D gel, LC-MS/MS; controls: irrelevant antibody, unbound beads
row,binding,Substance
1,binds,cortactin (from UniProt Q01406 1-563)
2,binds,glucose-related protein 78 (from UniProt Q90593 17-652)
3,binds,lamin A (from UniProt P13648 1-657)
4,binds,superoxide dismutase 1 (from UniProt P80566 1-154)
5,binds,synaptosomal-associated protein 25 (from UniProt P60878 1-206)
6,binds,γ-enolase (from UniProt O57391 1-434)

# — publication PMC3235137
